PubChem BioAssay AID493246 | Drosophila RNAi Screening Center | 2011
Purpose: 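Identify essential fly genes by loss of cell viability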 (primary screen). System: Drosophila Kc and S2R+ cells. Reagent: long dsRNA against Drosophila genes. Measurement: 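Cell number per well after knock-down, printed as raw plate values; calls were based on per-plate z-scores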. Scale: Kc cell number and S2R+ cell number: higher = more cells remaining. Active means: 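Counted as a hit if cell number falls by a z-score of at least 3 within its plate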.
In all, the deposit lists about 21,000 reagents; shown is an unselected part of those that have a named target and a result. Of all reagents, 429 (2%) are marked active. 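Values are raw and not normalised between plates; calls rest on per-plate z-scores that were not deposited.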 Not stated in the record: the amount of reagent, the time to read-out.

The opening 3 records, to show the layout:
target | amplicon | Kc cell number, rep 1 | Kc cell number, rep 2 | S2R+ cell number, rep 1 | S2R+ cell number, rep 2 | Outcome
CG34165 | DRSC01970 | 5.82e5 | 8.80e5 | 5.17e5 | 5.99e5 | active
Tsp42Er | DRSC06183 | 1.56e6 | 1.75e6 | 1.33e6 | 1.53e6 | inactive
RhoGEF4 | DRSC11011 | 1.37e6 | 1.44e6 | 1.21e6 | 1.16e6 | inactive

The listing, from the start:
target | amplicon | Kc cell number, rep 1 | Kc cell number, rep 2 | S2R+ cell number, rep 1 | S2R+ cell number, rep 2 | Outcome
CG34165 | DRSC01970 | 5.82e5 | 8.80e5 | 5.17e5 | 5.99e5 | active
Tsp42Er | DRSC06183 | 1.56e6 | 1.75e6 | 1.33e6 | 1.53e6 | inactive
RhoGEF4 | DRSC11011 | 1.37e6 | 1.44e6 | 1.21e6 | 1.16e6 | inactive
CG8298 | DRSC07138 | 1.65e6 | 1.73e6 | 1.37e6 | 1.43e6 | inactive
blp | DRSC15757 | 1.60e6 | 1.65e6 | 1.28e6 | 1.41e6 | inactive
CG33330 (retired record) | DRSC13053 | 1.21e6 | 1.24e6 | 6.19e5 | 7.27e5 | active
CG33330 (retired record) | DRSC15495 | 1.67e6 | 1.75e6 | 1.39e6 | 1.43e6 | inactive
rb | DRSC18826 | 1.70e6 | 1.65e6 | 1.10e6 | 1.24e6 | inactive
CG31104 | DRSC14658 | 1.59e6 | 1.64e6 | 1.06e6 | 1.21e6 | inactive
Tbp | DRSC04662 | 1.61e6 | 1.75e6 | 1.30e6 | 3.44e5 | inactive
Cyp4d1 | DRSC17694 | 1.26e6 | 1.57e6 | 1.05e6 | 1.09e6 | inactive
Cyp4d1 | DRSC18456 | 1.61e6 | 1.62e6 | 1.04e6 | 1.19e6 | inactive
CG14764 | DRSC05072 | 1.38e6 | 1.42e6 | 9.52e5 | 1.12e6 | inactive
CG14764 | DRSC06498 | 1.33e6 | 1.47e6 | 1.09e6 | 1.09e6 | inactive
CG14764 | DRSC06844 | 1.44e6 | 1.49e6 | 1.29e6 | 1.46e6 | inactive
cmet | DRSC03511 | 1.53e6 | 1.57e6 | 1.31e6 | 1.41e6 | inactive
hfw | DRSC18506 | 1.55e6 | 1.52e6 | 1.00e6 | 1.14e6 | inactive
peb | DRSC18817 | 1.45e6 | 1.46e6 | 1.05e6 | 1.13e6 | inactive
Prp4k | DRSC08144 | 1.35e6 | 1.39e6 | 1.30e6 | 1.26e6 | inactive
CG42271 | DRSC19809 | 6.01e5 | – | 7.22e5 | – | inactive
CG11123 | DRSC06040 | 1.66e6 | 1.70e6 | 1.26e6 | 1.38e6 | inactive
CG30419 | DRSC04208 | 1.41e6 | 1.55e6 | 1.03e6 | 1.18e6 | inactive
CG30419 | DRSC04209 | 1.30e6 | 1.46e6 | 1.03e6 | 1.11e6 | inactive
CG31816 | DRSC01547 | 1.44e6 | 1.47e6 | 9.37e5 | 1.12e6 | inactive
